Results reported in patent publication US6469013B2, “Therapeutic compounds” (Parker Hughes Institute, priority 1998, dated 2002).

Target: T1, human JAK3 (Homo sapiens, UniProt P52333)
T1 sequence (P52333 1-1124): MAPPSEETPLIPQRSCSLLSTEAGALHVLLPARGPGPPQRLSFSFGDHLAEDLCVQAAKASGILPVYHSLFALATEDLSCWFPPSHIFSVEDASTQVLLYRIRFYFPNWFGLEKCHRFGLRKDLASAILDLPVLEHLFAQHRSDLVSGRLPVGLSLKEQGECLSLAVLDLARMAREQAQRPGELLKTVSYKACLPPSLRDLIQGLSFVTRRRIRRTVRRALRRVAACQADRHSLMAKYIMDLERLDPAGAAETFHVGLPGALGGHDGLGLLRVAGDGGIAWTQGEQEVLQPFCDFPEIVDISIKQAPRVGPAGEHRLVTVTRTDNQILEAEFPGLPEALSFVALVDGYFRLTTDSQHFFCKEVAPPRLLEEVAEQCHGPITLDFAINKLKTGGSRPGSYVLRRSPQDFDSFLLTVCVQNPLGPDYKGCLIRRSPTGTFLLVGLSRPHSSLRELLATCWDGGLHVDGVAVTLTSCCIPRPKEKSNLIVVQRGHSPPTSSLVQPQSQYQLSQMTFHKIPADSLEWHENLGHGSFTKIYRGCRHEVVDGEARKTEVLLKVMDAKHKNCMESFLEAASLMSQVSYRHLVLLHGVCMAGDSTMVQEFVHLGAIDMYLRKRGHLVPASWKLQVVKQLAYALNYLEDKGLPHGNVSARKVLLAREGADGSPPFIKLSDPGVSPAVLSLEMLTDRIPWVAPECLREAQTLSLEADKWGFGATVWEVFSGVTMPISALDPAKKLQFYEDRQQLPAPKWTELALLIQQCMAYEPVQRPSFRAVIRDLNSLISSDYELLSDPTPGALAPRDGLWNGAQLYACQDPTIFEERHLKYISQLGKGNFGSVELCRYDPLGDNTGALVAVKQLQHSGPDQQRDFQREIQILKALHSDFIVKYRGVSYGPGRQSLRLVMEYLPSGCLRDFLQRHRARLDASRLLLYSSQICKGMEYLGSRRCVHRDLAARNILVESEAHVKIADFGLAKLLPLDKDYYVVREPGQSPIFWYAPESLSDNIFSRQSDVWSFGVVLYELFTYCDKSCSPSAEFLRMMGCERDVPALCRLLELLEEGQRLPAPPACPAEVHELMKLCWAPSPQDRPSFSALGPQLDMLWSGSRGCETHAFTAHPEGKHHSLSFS
Experiment: JAK3 immune complex kinase assay (JAK3 immunoprecipitated from KL2 EBV-transformed B cell line)
Format: biochemical
Settings: KL2 cell-derived human JAK3
Method: In JAK3 immune complex kinase assays (17, 22), KL-2 EBV-transformed human lymphoblastoid B cells (native JAK3 kinase assays) or insect ovary cells (recombinant JAK3 kinase assays) were lysed with NP-40 lysis buffer (50 mM Tris, pH 8, 150 mM NaCl, 5 mM EDTA, 1% NP-40, 100 μM sodium orthovanadate, 100 μM sodium molybdate, 8 μg/ml aprotinin, 5 μg/ml leupeptin, and 500 μM PMSF) and centrifuged 10 min at 13000× g to remove insoluble material. Samples were immunoprecipitated with antisera prepared against JAK3. The antisera were diluted and immune complexes collected by incubation with 15 μl protein A Sepharose. After 4 washes with NP-40 lysis buffer, the protein A Sepharose beads were washed once in kinase buffer (20 mM MOPS, pH7, 10 mM MgCl2) and resuspended in the same buffer. Reactions were initiated by the addition of 25 μCi [γ^32P] ATP (5000 Ci/mMole) and unlabeled ATP to a final concentration of 5 μM. Reactions were terminated by boiling for 4 min in SDS sample buffer. Samples were run on 9.5% SDS polyacrylamide gels and labeled proteins were detected by autoradiography. […] For each drug concentration, a kinase activity index (KA) was determined by comparing the kinase activity in phosphorimager units (PIU) to that of the baseline sample. […]

Q: For `COc1cc2ncnc(Nc3ccc(O)c(Br)c3)c2cc1OC` [WHI-P154, 4-(3′bromo4′-hydroxyl-phenyl)-amino-6,7-dimethoxyquinazoline], which IC50 is on record?
A: 27.9 µM
